No constants are given. Whether binding was seen depends on the method and setting. Binding seen in cells or lysates may run through a third protein. Some binding calls cover weakened binding; strength is not graded here.

By UniProt entry, the sequences of proteins in these tests, tags left out.
UniProt Q99720: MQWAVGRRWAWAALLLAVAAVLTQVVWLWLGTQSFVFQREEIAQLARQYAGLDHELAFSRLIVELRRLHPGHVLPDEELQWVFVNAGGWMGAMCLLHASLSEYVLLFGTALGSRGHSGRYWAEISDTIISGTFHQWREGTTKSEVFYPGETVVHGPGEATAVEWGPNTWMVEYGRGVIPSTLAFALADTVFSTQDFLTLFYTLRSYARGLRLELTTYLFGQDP
UniProt Q61327: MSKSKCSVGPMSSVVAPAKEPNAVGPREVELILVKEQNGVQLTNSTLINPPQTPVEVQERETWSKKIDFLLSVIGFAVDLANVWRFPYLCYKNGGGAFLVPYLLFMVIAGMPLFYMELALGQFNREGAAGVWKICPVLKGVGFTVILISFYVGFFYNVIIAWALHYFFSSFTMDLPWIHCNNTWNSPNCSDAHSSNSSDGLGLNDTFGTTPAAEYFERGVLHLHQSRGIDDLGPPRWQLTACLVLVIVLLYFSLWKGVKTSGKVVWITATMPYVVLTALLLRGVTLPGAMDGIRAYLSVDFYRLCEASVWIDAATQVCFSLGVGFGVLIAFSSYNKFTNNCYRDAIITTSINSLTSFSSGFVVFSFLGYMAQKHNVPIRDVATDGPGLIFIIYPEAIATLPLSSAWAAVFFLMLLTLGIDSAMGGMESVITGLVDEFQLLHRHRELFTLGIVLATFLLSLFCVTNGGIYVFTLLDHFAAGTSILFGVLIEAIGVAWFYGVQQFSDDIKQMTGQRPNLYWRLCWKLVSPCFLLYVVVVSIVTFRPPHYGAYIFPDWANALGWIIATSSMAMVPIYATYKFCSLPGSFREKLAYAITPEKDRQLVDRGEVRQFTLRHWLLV

For experiment [1], the target named is sigma-1 receptor, endogenous in HEK-293 cells (human (endogenous in HEK-293)) (UniProt Q99720). In words: co-IP; HEK-293 lysates precipitated with rabbit serum against σ1R on AminoLink Plus Coupling Resin, 14-18 h at 4 °C; blot probed with anti-DAT, re-probed with anti-σ1R.
The target of experiment [2] is sigma-1 receptor, overexpressed untagged (UniProt Q99720). The experiment is described as above.

Consider “dopamine transporter (mDAT) (from UniProt Q61327 1-619)”, for which the binding result in experiment [1] and in experiment [2] was “binds” each time.

The values are drawn from publication PMC5738444.
